Measurements: article PMC5833644
No constants are given. Whether binding was seen depends on the method and setting. For some assays here: In cells and extracts the contact can be indirect. Some entries that bind do so weakly or less than the wild type.

Chains of the proteins cited; added tags and fusions are not shown.
UniProt P11166: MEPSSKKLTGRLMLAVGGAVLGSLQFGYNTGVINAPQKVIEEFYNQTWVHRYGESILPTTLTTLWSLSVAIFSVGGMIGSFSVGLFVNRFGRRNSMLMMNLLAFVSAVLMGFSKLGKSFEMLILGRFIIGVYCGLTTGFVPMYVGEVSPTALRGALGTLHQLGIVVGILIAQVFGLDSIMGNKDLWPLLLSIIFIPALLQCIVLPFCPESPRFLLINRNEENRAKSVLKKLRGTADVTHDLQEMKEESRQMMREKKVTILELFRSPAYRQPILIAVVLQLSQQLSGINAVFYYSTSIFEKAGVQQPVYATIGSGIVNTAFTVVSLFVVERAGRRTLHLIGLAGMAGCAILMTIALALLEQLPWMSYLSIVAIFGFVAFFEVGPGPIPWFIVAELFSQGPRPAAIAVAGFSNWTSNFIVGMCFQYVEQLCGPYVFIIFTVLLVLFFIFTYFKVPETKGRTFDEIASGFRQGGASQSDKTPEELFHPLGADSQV

Legend:
[1] = molecular target: T1, MUC13 (human (endogenous in HPAF-II and AsPC1)) (UniProt Q9H3R2); test: proximity ligation; in situ PLA (Duolink Red Starter kit) in HPAF-II cells; anti-mouse minus and anti-rabbit plus probes; confocal microscopy
T1 sequence: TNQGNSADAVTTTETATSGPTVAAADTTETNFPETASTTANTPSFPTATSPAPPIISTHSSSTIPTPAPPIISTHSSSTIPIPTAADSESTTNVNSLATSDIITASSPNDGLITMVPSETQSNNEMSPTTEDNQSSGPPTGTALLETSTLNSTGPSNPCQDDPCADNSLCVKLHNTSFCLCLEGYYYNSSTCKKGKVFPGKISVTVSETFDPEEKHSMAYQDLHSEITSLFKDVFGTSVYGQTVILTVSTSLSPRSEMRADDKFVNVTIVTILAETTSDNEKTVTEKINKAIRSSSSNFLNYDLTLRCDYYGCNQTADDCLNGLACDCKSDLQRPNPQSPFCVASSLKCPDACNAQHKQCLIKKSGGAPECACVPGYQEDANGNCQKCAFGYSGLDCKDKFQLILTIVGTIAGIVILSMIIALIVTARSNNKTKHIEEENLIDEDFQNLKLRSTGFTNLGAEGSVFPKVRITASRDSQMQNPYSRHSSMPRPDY

[2] = molecular target: T1, MUC13 (human (endogenous in HPAF-II and AsPC1)); test: co-IP; reciprocal co-immunoprecipitation from whole-cell lysates of AsPC1 and HPAF-II cells; 500 µg of protein incubated with antibodies at 4 °C overnight
[3] = molecular target: T1, MUC13 (human (endogenous in HPAF-II and AsPC1)); test: condition: only cells treated with sulfasalazine (0.9 mM) for 24 h; co-IP; reciprocal co-immunoprecipitation from lysates of HPAF-II cells treated with sulfasalazine (0.9 mM) for 24 h
[4] = molecular target: T1, MUC13 (human (endogenous in HPAF-II and AsPC1)); test: co-capping assay; HPAF-II and AsPC1 cells incubated with NHS-Rhodamine-labeled anti-MUC13 mAb (30 µg/ml) 1 h at 4 °C, plated at 37 °C for about 2 h, then stained for Glut-1 or α-tubulin; confocal microscopy

binding [1] | binding [2] | binding [3] | binding [4] | Substance
binds |  |  |  | HER2 (from UniProt P04626 23-1255) (receptor)
binds | binds | no binding | binds | glucose transporter-1 (Glut-1) (from UniProt P11166 1-492)
